US9493466B2, “Treatment of cancer with TOR kinase inhibitors” (Signal Pharmaceuticals, LLC, priority 2011, dated 2016)
At least one structure is not confirmed: it was looked up by name or label, or the drawing left a doubt.

Tests used:
Assay in all cases: Apoptosis assay for NHL lines (Caspase 3/7-Glo)
Assay type in all cases: cell-based
DOHH-2 = conditions: DOHH-2, NHL FL, 24 hours, n = 1
Procedure: (§1) Apoptosis Assay for NHL Lines. Prior to testing, cells were grown and expanded in culture flasks to provide sufficient amounts of starting material. Cells were then diluted to their desired densities and added directly to compound-spotted 384-well plates. Cells were allowed to grow for 24 hours in 5% CO2 at 37° C. The apoptotic response was assessed by quantifying the activities of caspase 3 and caspase 7 (Caspase 3/7-Glo) in treated cells and control cells at the 24-hour time point. All data was normalized and represented as a value relative to the DMSO-treated cells. Results were then expressed as CalX, which is the minimum compound concentration required to double the levels of caspase 3/7 relative to those of the DMSO-treated cells during their treatment period.

Farage = conditions: NHL DLBCL, 24 hours, n = 1
Procedure: as §1

Granta-519 = conditions: Granta-519, NHL MCL, 24 hours, n = 1
Procedure: as §1

HL-60 = conditions: HL-60, Leukemia M-AML, 24 hours, n = 1
Procedure: as §1

JEKO-1 = conditions: JEKO-1, NHL MCL, 24 hours, n = 1
Procedure: as §1

KARPAS-1106P = conditions: NHL DLBCL, 24 hours, n = 1
Procedure: as §1

KG-1 = conditions: KG-1, Leukemia M-AML, 24 hours, n = 1
Procedure: as §1

Mino = conditions: NHL MCL, 24 hours, n = 1
Procedure: as §1

NU-DHL-1 = conditions: NU-DHL-1, NHL DLBCL, 24 hours, n = 1
Procedure: as §1

OCI-LY-10 = conditions: OCI-LY-10, NHL DLBCL, 24 hours, n = 1
Procedure: as §1

OCI-LY-19 = conditions: OCI-LY-19, NHL DLBCL, 24 hours, n = 1
Procedure: as §1

OCI-LY-3 = conditions: OCI-LY-3, NHL DLBCL, 24 hours, n = 1
Procedure: as §1

OCI-LY-7 = conditions: OCI-LY-7, NHL DLBCL, 24 hours, n = 1
Procedure: as §1

Pfeiffer = conditions: NHL DLBCL, 24 hours, n = 1
Procedure: as §1

REC-1 = conditions: REC-1, NHL MCL, 24 hours, n = 1
Procedure: as §1

SC-1 = conditions: SC-1, NHL FL, 24 hours, n = 1
Procedure: as §1

SU-DHL-10 = conditions: SU-DHL-10, NHL DLBCL, 24 hours, n = 1
Procedure: as §1

SU-DHL-16 = conditions: SU-DHL-16, NHL DLBCL, 24 hours, n = 1
Procedure: as §1

SU-DHL-1 = conditions: SU-DHL-1, ALCL T-cell, 24 hours, n = 1
Procedure: as §1

SU-DHL-5 = conditions: SU-DHL-5, NHL DLBCL, 24 hours, n = 1
Procedure: as §1

SU-DHL-6 = conditions: SU-DHL-6, NHL DLBCL, 24 hours, n = 1
Procedure: as §1

SU-DHL-8 = conditions: SU-DHL-8, NHL DLBCL, 24 hours, n = 1
Procedure: as §1

U-2932 = conditions: U-2932, NHL DLBCL, 24 hours, n = 1
Procedure: as §1

U-2940 = conditions: U-2940, NHL DLBCL, 24 hours, n = 1
Procedure: as §1

WSU-DLCL2 = conditions: WSU-DLCL2, NHL DLBCL, 24 hours, n = 1
Procedure: as §1

WSU-FSCCL = conditions: NHL FL, 24 hours, n = 1
Procedure: as §1

WSU-NHL = conditions: NHL FL, 24 hours, n = 1
Procedure: as §1

CO[C@H]1CC[C@H](N2C(=O)CNc3ncc(-c4ccc(C(C)(C)O)nc4)nc32)CC1 [Compound 1, 7-(6-(2-hydroxypropan-2-yl)pyridin-3-yl)-1-((1r,4r)-4-methoxycyclohexyl)-3,4-dihydropyrazino-[2,3-b]pyrazin-2(1H)-one]
Apoptotic (DOHH-2): Y | Apoptotic (Farage): Y | Apoptotic (Granta-519): N | Apoptotic (HL-60): N | Apoptotic (JEKO-1): Y | Apoptotic (KARPAS-1106P): Y | Apoptotic (KG-1): N | Apoptotic (Mino): Y | Apoptotic (NU-DHL-1): Y | Apoptotic (OCI-LY-10): Y | Apoptotic (OCI-LY-19): Y | Apoptotic (OCI-LY-3): Y | Apoptotic (OCI-LY-7): Y | Apoptotic (Pfeiffer): N | Apoptotic (REC-1): Y | Apoptotic (SC-1): N | Apoptotic (SU-DHL-10): Y | Apoptotic (SU-DHL-16): Y | Apoptotic (SU-DHL-1): N | Apoptotic (SU-DHL-5): Y | Apoptotic (SU-DHL-6): N | Apoptotic (SU-DHL-8): Y | Apoptotic (U-2932): Y | Apoptotic (U-2940): Y | Apoptotic (WSU-DLCL2): Y | Apoptotic (WSU-FSCCL): Y | Apoptotic (WSU-NHL): Y
